Assay results taken from publication PMC3574224, “Na^+ Regulation in the Malaria Parasite Plasmodiumfalciparum Involves the Cation ATPase PfATP4 and Is a Target of the Spiroindolone Antimalarials” (Cell Host & Microbe, 2013).

System: P. falciparum 3D7 trophozoites
Format: cell-based, Plasmodium falciparum
Experimental: P. falciparum strains 3D7, Dd2, NITD609-R^Dd2 clone #2, Dd2^attB, and Dd2^attB CAM I398F/P990R were cultured under shaking conditions as described elsewhere ([Allen and Kirk, 2010]). Cultures were synchronized 24 hr before experimentation using 5% w/v sorbitol ([Lambros and Vanderberg, 1979]). All experiments were conducted on mature trophozoite-stage parasites (36–40 hr postinvasion) functionally isolated from their host erythrocytes by permeabilization of the erythrocyte and parasitophorous vacuole membranes by brief exposure to saponin (0.05% w/v) as described previously ([Spillman et al., 2008]). After saponin isolation, parasites remained intact and able to generate and maintain transmembrane ion gradients ([Saliba and Kirk, 1999]; [Spillman et al., 2008]) as well as maintain a large inwardly negative membrane potential ([Allen and Kirk, 2004]).
The [Na^+]i of saponin-isolated parasites was measured at 37°C using the Na^+-sensitive dye SBFI (Molecular Probes, Invitrogen) in conjunction with a PerkinElmer LS 50B Fluorescence Spectrometer fitted with a Dual Excitation Fast Filter. […] The dye-loaded cells were excited at 340 nm and 380 nm with fluorescence recorded at 490 nm. Calibration of the relationship between the 340/380 nm fluorescence ratio and [Na^+]i (see Figures S1A–S1C) was carried out as described previously ([Diarra et al., 2001]; [Harootunian et al., 1989]). […]

With `NS(=O)(=O)c1cc(C(=O)O)c(NCc2ccco2)cc1Cl` [Furosemide, reference compound] the “Increase in [Na^+]i” value was 2.3 ± 0.7 mM.
